Experimental data taken from the supplement of paper PMC8728848.
Some of the results follow.

Columns and labels:
Test in all cases: glycan array binding signal (z-score within array); higher = stronger binding
Conditions in all cases: glycan notation: IUPAC condensed, linker removed
[1] = target: Gal(b1-4)GlcNAc(b1-2)Man(a1-6)[GlcNAc(b1-2)Man(a1-3)]Man(b1-4)GlcNAc(b1-4)GlcNAc
How it was run: (§1)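 The binding signal is a Z-score computed within each array. Data were drawn from 3228 arrays in the Consortium for Functional Glycomics database, restricted to those with a known protein sequence. Scores were averaged over arrays of the same protein sequence at different concentrations or buffers, and over linkers, and negative values can be taken as non-binding.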

[2] = target: Gal(b1-4)GlcNAc(b1-2)Man(a1-6)[Man(a1-3)]Man(b1-4)GlcNAc(b1-4)GlcNAc
How it was run: as §1

[3] = target: Gal(b1-4)GlcNAc(b1-2)[Gal(b1-4)GlcNAc(b1-4)]Man(a1-3)[Gal(b1-4)GlcNAc(b1-2)Man(a1-6)]Man(b1-4)GlcNAc(b1-4)GlcNAc
How it was run: as §1

[4] = target: Gal(b1-4)GlcNAc(b1-2)[Gal(b1-4)GlcNAc(b1-4)]Man(a1-3)[Gal(b1-4)GlcNAc(b1-2)[Gal(b1-4)GlcNAc(b1-6)]Man(a1-6)]Man(b1-4)GlcNAc(b1-4)GlcNAc
How it was run: as §1

[5] = target: Gal(b1-4)GlcNAc(b1-3)Gal(b1-3)GlcNAc
How it was run: as §1

[6] = target: Gal(b1-4)GlcNAc(b1-3)Gal(b1-4)Glc
How it was run: as §1

[7] = target: Gal(b1-4)GlcNAc(b1-3)Gal(b1-4)GlcNAc
How it was run: as §1

[8] = target: Gal(b1-4)GlcNAc(b1-3)Gal(b1-4)GlcNAc(b1-3)Gal(b1-4)GlcNAc
How it was run: as §1

[9] = target: Gal(b1-4)GlcNAc(b1-3)Gal(b1-4)[Fuc(a1-3)]GlcNAc(b1-3)Gal(b1-4)[Fuc(a1-3)]GlcNAc
How it was run: as §1

[10] = target: Gal(b1-4)GlcNAc(b1-3)GalNAc
How it was run: as §1

[11] = target: Gal(b1-4)GlcNAc(b1-3)[Gal(b1-4)GlcNAc(b1-6)]Gal(b1-4)GlcNAc
How it was run: as §1

[12] = target: Gal(b1-4)GlcNAc(b1-3)[Gal(b1-4)GlcNAc(b1-6)]GalNAc
How it was run: as §1

[13] = target: Gal(b1-4)GlcNAc(b1-3)[GlcNAc(b1-6)]Gal(b1-4)GlcNAc
How it was run: as §1

[14] = target: Gal(b1-4)GlcNAc(b1-6)Gal(b1-4)GlcNAc
How it was run: as §1

[15] = target: Gal(b1-4)GlcNAc(b1-6)GalNAc
How it was run: as §1

[16] = target: Gal(b1-4)GlcNAc(b1-6)[Gal(b1-3)]GalNAc
How it was run: as §1

Gal3S(b1-3)GalNAc = target: Gal3S(b1-3)GalNAc
How it was run: as §1

Gal3S(b1-3)GlcNAc = target: Gal3S(b1-3)GlcNAc
How it was run: as §1

[17] = target: Gal3S(b1-3)[Fuc(a1-4)]GlcNAc
How it was run: as §1

Gal3S(b1-4)Glc = target: Gal3S(b1-4)Glc
How it was run: as §1

Gal3S(b1-4)Glc6S = target: Gal3S(b1-4)Glc6S
How it was run: as §1

Gal3S(b1-4)GlcNAc = target: Gal3S(b1-4)GlcNAc
How it was run: as §1

Gal3S(b1-4)GlcNAc6S = target: Gal3S(b1-4)GlcNAc6S
How it was run: as §1

[18] = target: Gal3S(b1-4)[Fuc(a1-3)]Glc
How it was run: as §1

[19] = target: Gal3S(b1-4)[Fuc(a1-3)]Glc6S
How it was run: as §1

Gal3S4S(b1-4)GlcNAc = target: Gal3S4S(b1-4)GlcNAc
How it was run: as §1

Gal3S6S(b1-4)GlcNAc = target: Gal3S6S(b1-4)GlcNAc
How it was run: as §1

Gal3S6S(b1-4)GlcNAc6S = target: Gal3S6S(b1-4)GlcNAc6S
How it was run: as §1

Gal4S(b1-4)GlcNAc = target: Gal4S(b1-4)GlcNAc
How it was run: as §1

Gal4S6S(b1-4)GlcNAc = target: Gal4S6S(b1-4)GlcNAc
How it was run: as §1

Gal6S(b1-4)Glc = target: Gal6S(b1-4)Glc
How it was run: as §1

Gal6S(b1-4)Glc6S = target: Gal6S(b1-4)Glc6S
How it was run: as §1

Gal6S(b1-4)GlcNAc = target: Gal6S(b1-4)GlcNAc
How it was run: as §1

Gal6S(b1-4)GlcNAc6S = target: Gal6S(b1-4)GlcNAc6S
How it was run: as §1

GalNAc(a1-3)Gal = target: GalNAc(a1-3)Gal
How it was run: as §1

GalNAc(a1-3)GalNAc = target: GalNAc(a1-3)GalNAc
How it was run: as §1

[20] = target: GalNAc(a1-3)GalNAc(a1-3)Gal(a1-4)Gal(b1-4)GlcNAc
How it was run: as §1

GalNAc(b1-3)Gal = target: GalNAc(b1-3)Gal
How it was run: as §1

B1: SRS2 (Toxoplasma gondii), O15695 (protein)
chain: MATRASLARQKTGAACLAVLTASPSVVAAKPWKRWVGVSVILASAFAVGVSAGPPYRYEPEKFTCRPKKGILSQWVSLLYQVQHNITFACEEATPVPTTLISEEHGLMVCAENMTPEECEANPAPLSAFLPGATKEWVTGDSVLTGLKISVPESQYPANAKSFRVGCRHNTKTGNTCMLTIHVEPRDPAVERQEARCSYTENSTLPKIFVTKDSNTMTLACGPHGAPMPESYTENYCSTPDTCDEKPFTSVIPGYLSKWFFGDPKSPLGARVRIPPEQIPSSPQINYFGCTGPTEGEGPKYNCTVPVPLGGGDPSEGSRPGGGSGGGKRGGGQGGGGSLAGFDFRQGSARHSLPSRMALSASALLAMTALAY
glycan array binding signal (z-score) [1]: 1.51
glycan array binding signal (z-score) [2]: 1.17
glycan array binding signal (z-score) [3]: 0.03
glycan array binding signal (z-score) [4]: 0.293
glycan array binding signal (z-score) [5]: 0.954
glycan array binding signal (z-score) [6]: -0.424
glycan array binding signal (z-score) [7]: 0.119
glycan array binding signal (z-score) [8]: -0.504
glycan array binding signal (z-score) [9]: -0.041
glycan array binding signal (z-score) [10]: 0.086
glycan array binding signal (z-score) [11]: 0.719
glycan array binding signal (z-score) [12]: 6.82
glycan array binding signal (z-score) [13]: -0.425
glycan array binding signal (z-score) [14]: -0.575
glycan array binding signal (z-score) [15]: 0.894
glycan array binding signal (z-score) [16]: -0.16
glycan array binding signal (z-score) (Gal3S(b1-3)GalNAc): 0.398
glycan array binding signal (z-score) (Gal3S(b1-3)GlcNAc): 0.567
glycan array binding signal (z-score) [17]: -0.213
glycan array binding signal (z-score) (Gal3S(b1-4)Glc): -0.359
glycan array binding signal (z-score) (Gal3S(b1-4)Glc6S): 0.326
glycan array binding signal (z-score) (Gal3S(b1-4)GlcNAc): 0.347
glycan array binding signal (z-score) (Gal3S(b1-4)GlcNAc6S): -0.041
glycan array binding signal (z-score) [18]: 0.734
glycan array binding signal (z-score) [19]: 2.13
glycan array binding signal (z-score) (Gal3S4S(b1-4)GlcNAc): -0.703
glycan array binding signal (z-score) (Gal3S6S(b1-4)GlcNAc): -0.057
glycan array binding signal (z-score) (Gal3S6S(b1-4)GlcNAc6S): -0.126
glycan array binding signal (z-score) (Gal4S(b1-4)GlcNAc): -0.196
glycan array binding signal (z-score) (Gal4S6S(b1-4)GlcNAc): 0.612
glycan array binding signal (z-score) (Gal6S(b1-4)Glc): -0.689
glycan array binding signal (z-score) (Gal6S(b1-4)Glc6S): 0.237
glycan array binding signal (z-score) (Gal6S(b1-4)GlcNAc): -0.385
glycan array binding signal (z-score) (Gal6S(b1-4)GlcNAc6S): -1.07
glycan array binding signal (z-score) (GalNAc(a1-3)Gal): -0.547
glycan array binding signal (z-score) (GalNAc(a1-3)GalNAc): 0.067
glycan array binding signal (z-score) [20]: 0.55
glycan array binding signal (z-score) (GalNAc(b1-3)Gal): -0.009
